These are yes or no findings as the source states them, for the method shown. Some results given as binding are weak or reduced against the parent protein; the word gives no strength.

The target of this assay is T1, Elg1, budding yeast (budding yeast) (UniProt Q12050).
T1 sequence: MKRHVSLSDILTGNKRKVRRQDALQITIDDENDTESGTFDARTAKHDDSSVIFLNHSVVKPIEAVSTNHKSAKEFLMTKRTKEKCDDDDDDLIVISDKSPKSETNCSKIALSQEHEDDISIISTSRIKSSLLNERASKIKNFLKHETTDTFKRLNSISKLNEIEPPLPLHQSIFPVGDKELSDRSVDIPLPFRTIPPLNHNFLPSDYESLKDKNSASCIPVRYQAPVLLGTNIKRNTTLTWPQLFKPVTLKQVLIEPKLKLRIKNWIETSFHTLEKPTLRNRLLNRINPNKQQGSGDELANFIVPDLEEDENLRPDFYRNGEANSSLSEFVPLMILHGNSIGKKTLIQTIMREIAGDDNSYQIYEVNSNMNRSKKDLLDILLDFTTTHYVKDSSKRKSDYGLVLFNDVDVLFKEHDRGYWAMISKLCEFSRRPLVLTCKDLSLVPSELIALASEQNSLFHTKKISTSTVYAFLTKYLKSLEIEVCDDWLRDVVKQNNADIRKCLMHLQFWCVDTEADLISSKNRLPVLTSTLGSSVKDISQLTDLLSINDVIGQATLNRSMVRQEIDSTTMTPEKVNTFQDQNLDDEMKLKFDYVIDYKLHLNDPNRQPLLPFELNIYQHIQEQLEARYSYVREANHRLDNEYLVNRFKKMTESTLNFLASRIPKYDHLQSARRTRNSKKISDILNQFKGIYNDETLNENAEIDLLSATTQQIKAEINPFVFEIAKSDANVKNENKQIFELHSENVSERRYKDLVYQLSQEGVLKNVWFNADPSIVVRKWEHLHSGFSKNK
In words: co-purification (anti-FLAG resin, ion exchange); Elg1 variants overexpressed with Rfc2–5 in yeast (galactose, 5 h); anti-FLAG M2 agarose and ion exchange chromatography.

B1: Rfc2–5, budding yeast (complex, UniProt P40348 1-353; P38629 1-340; P40339 1-323; P38251 1-354)
chain 1: MFEGFGPNKKRKISKLAAEQSLAQQPWVEKYRPKNLDEVTAQDHAVTVLKKTLKSANLPHMLFYGPPGTGKTSTILALTKELYGPDLMKSRILELNASDERGISIVREKVKNFARLTVSKPSKHDLENYPCPPYKIIILDEADSMTADAQSALRRTMETYSGVTRFCLICNYVTRIIDPLASRCSKFRFKALDASNAIDRLRFISEQENVKCDDGVLERILDISAGDLRRGITLLQSASKGAQYLGDGKNITSTQVEELAGVVPHDILIEIVEKVKSGDFDEIKKYVNTFMKSGWSAASVVNQLHEYYITNDNFDTNFKNQISWLLFTTDSRLNNGTNEHIQLLNLLVKISQL
chain 2: MSTSTEKRSKENLPWVEKYRPETLDEVYGQNEVITTVRKFVDEGKLPHLLFYGPPGTGKTSTIVALAREIYGKNYSNMVLELNASDDRGIDVVRNQIKDFASTRQIFSKGFKLIILDEADAMTNAAQNALRRVIERYTKNTRFCVLANYAHKLTPALLSRCTRFRFQPLPQEAIERRIANVLVHEKLKLSPNAEKALIELSNGDMRRVLNVLQSCKATLDNPDEDEISDDVIYECCGAPRPSDLKAVLKSILEDDWGTAHYTLNKVRSAKGLALIDLIEGIVKILEDYELQNEETRVHLLTKLADIEYSISKGGNDQIQGSAVIGAIKASFENETVKANV
chain 3: MSKTLSLQLPWVEKYRPQVLSDIVGNKETIDRLQQIAKDGNMPHMIISGMPGIGKTTSVHCLAHELLGRSYADGVLELNASDDRGIDVVRNQIKHFAQKKLHLPPGKHKIVILDEADSMTAGAQQALRRTMELYSNSTRFAFACNQSNKIIEPLQSRCAILRYSKLSDEDVLKRLLQIIKLEDVKYTNDGLEAIIFTAEGDMRQAINNLQSTVAGHGLVNADNVFKIVDSPHPLIVKKMLLASNLEDSIQILRTDLWKKGYSSIDIVTTSFRVTKNLAQVKESVRLEMIKEIGLTHMRILEGVGTYLQLASMLAKIHKLNNKA
chain 4: MSLWVDKYRPKSLNALSHNEELTNFLKSLSDQPRDLPHLLLYGPNGTGKKTRCMALLESIFGPGVYRLKIDVRQFVTASNRKLELNVVSSPYHLEITPSDMGNNDRIVIQELLKEVAQMEQVDFQDSKDGLAHRYKCVIINEANSLTKDAQAALRRTMEKYSKNIRLIMVCDSMSPIIAPIKSRCLLIRCPAPSDSEISTILSDVVTNERIQLETKDILKRIAQASNGNLRVSLLMLESMALNNELALKSSSPIIKPDWIIVIHKLTRKIVKERSVNSLIECRAVLYDLLAHCIPANIILKELTFSLLDVETLNTTNKSSIIEYSSVFDERLSLGNKAIFHLEGFIAKVMCCLD
As for B1, the binding entry is given as “binds”.
